PubChem BioAssay AID1508588 – Peter MacCallum Cancer Centre, 2020

Aim: 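Which gene losses make BRAF-mutant melanoma cells more responsive to vemurafenib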 (primary screen)
Cells: human WM266.4 melanoma cells (BRAF V600 mutant)
Reagent: siRNA pool against human genes, 40 nM
Timing: 96 h from transfection to read-out
Treatment: vemurafenib 300 nM (about IC25), added 48 h after transfection, for 48 h; comparison arm got DMSO vehicle only
Read-out: 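Cell gain (DAPI nuclei at end minus before drug, mean of two replicates) and medium lactate by absorbance per cell, both as ratio to non-targeting siRNA, also grouped into fold-change classes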
Direction: cell gain with vemurafenib: higher = more cell gain than with non-targeting siRNA; lactate per cell with vemurafenib: higher = more lactate made per cell
Rule for the call: 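a knock-down counts as enhancing when its fold-change classes with vehicle and with vemurafenib, taken together, show a stronger drug effect on cell gain or lactate per cell; exact class pairs not stated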
Meaning of the calls: active = enhances vemurafenib effect; inactive = no enhancement seen
The whole screen tested about 18,000 reagents; this is an unselected part. 790 of them (4.4%) count as active. 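Calls rest on a combination of fold-change classes in drug and vehicle arms, not all shown here.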

gene	cell gain with vemurafenib	lactate per cell with vemurafenib	call
VPS45 (GeneID 11311)	0.02	0.44	active
OR6C6 (GeneID 283365)	1.09	0.73	inactive
TARS2 (GeneID 80222)	0.74	1.14	inactive
LPCAT4 (GeneID 254531)	0.81	1.64	inactive
E2F3 (GeneID 1871)	0.74	0.92	inactive
OR51B6 (GeneID 390058)	0.73	1.45	inactive
OTOS (GeneID 150677)	0.85	0.9	inactive
OXER1 (GeneID 165140)	0.89	0.64	inactive
ECI1 (GeneID 1632)	0.9	0.84	inactive
NDP (GeneID 4693)	0.13	0.97	inactive
ME3 (GeneID 10873)	0.46	0.7	inactive
TFPI2 (GeneID 7980)	0.41	1.36	inactive
MC4R (GeneID 4160)	0.2	0.58	inactive
RIMKLB (GeneID 57494)	0.97	0.76	inactive
SNCG (GeneID 6623)	0.1	1.9	inactive
TAGLN2 (GeneID 8407)	0.59	0.52	inactive
OR56A4 (GeneID 120793)	0.84	0.81	inactive
ADAM30 (GeneID 11085)	0.76	1.3	inactive
SUPT6H (GeneID 6830)	-0.04	1.75	inactive
MRPL52 (GeneID 122704)	0.92	0.95	inactive
SLC44A3 (GeneID 126969)	0.87	1.08	inactive
BST1 (GeneID 683)	0.79	0.88	inactive
NME8 (GeneID 51314)	0.86	0.99	inactive
POLE4 (GeneID 56655)	0.63	0.7	inactive
CRIM1 (GeneID 51232)	0.62	0.8	inactive
SAPCD2 (GeneID 89958)	1.05	0.88	inactive
AGTRAP (GeneID 57085)	0.57	1.34	inactive
CTC1 (GeneID 80169)	0.97	0.8	inactive
CMTM3 (GeneID 123920)	0.24	1.87	inactive
ZNF790 (GeneID 388536)	0.67	1.01	inactive
PDZD7 (GeneID 79955)	0.19	0.74	inactive
SUGP1 (GeneID 57794)	0.64	1.12	inactive
PKDCC (GeneID 91461)	0.75	0.82	inactive
MACROH2A1 (GeneID 9555)	0.99	0.41	active
GLYR1 (GeneID 84656)	1.1	0.44	active
ALS2CL (GeneID 259173)	0.7	1.02	inactive

Hits (from the list above):
gene	cell gain with vemurafenib	lactate per cell with vemurafenib	call
VPS45 (GeneID 11311)	0.02	0.44	active
MACROH2A1 (GeneID 9555)	0.99	0.41	active
GLYR1 (GeneID 84656)	1.1	0.44	active

More records:
gene	cell gain with vemurafenib	lactate per cell with vemurafenib	call
CALU (GeneID 813)	0.8	0.76	inactive
MAPK15 (GeneID 225689)	0.11	1.43	inactive
IL6ST (GeneID 3572)	0.25	0.22	inactive
FRYL (GeneID 285527)	1.11	1.08	inactive
CLEC18B (GeneID 497190)	1.13	0.88	inactive
CD300LD-AS1 (GeneID 146723)	0.87	0.27	inactive
TRNT1 (GeneID 51095)	0.19	3.03	inactive
CHRNG (GeneID 1146)	0.53	0.88	inactive
ZNF682 (GeneID 91120)	0.92	0.73	inactive
BAIAP3 (GeneID 8938)	0.09	1.33	inactive
COLQ (GeneID 8292)	0.56	0.68	inactive
LCAT (GeneID 3931)	0.51	0.66	inactive
ILRUN (GeneID 64771)	0.63	0.88	inactive
ACTC1 (GeneID 70)	1.08	0.7	inactive
OR2AE1 (GeneID 81392)	0.83	0.64	inactive
DNAJC25-GNG10 (GeneID 552891)	0.87	1.03	inactive
LSM14A (GeneID 26065)	0.11	1.36	inactive
CDCP2 (GeneID 200008)	0.82	1.08	inactive
IGFBP3 (GeneID 3486)	0.27	1.7	inactive
VIPR1 (GeneID 7433)	0.32	1.92	inactive
CIROZ (GeneID 148345)	0.68	0.94	inactive
SPATA21 (GeneID 374955)	0.36	2.5	inactive
OR1D4 (GeneID 653166)	0.2	2.3	inactive
GATB (GeneID 5188)	0.96	0.81	inactive
ADGRD2 (GeneID 347088)	0.53	1.3	inactive
SLC22A15 (GeneID 55356)	0.6	1.34	inactive
SLBP (GeneID 7884)	0.2	1.38	inactive
NKAIN3 (GeneID 286183)	0.86	1.07	inactive
DHDDS (GeneID 79947)	1.15	0.44	inactive
CYP8B1 (GeneID 1582)	1.15	0.5	inactive
ESM1 (GeneID 11082)	0.85	0.74	inactive
IRF5 (GeneID 3663)	0.31	1.26	inactive
COL8A2 (GeneID 1296)	0.3	0.87	inactive
PLAAT1 (GeneID 57110)	0.78	1.55	inactive
RAMAC (GeneID 83640)	0.55	1.66	inactive
ATP12A (GeneID 479)	1	0.95	inactive
ACOX3 (GeneID 8310)	0.72	0.81	inactive
HES6 (GeneID 55502)	0.6	1.62	inactive
BTF3 (GeneID 689)	0.63	1.09	inactive
WNT9A (GeneID 7483)	0.69	1.38	inactive
RAB30 (GeneID 27314)	1.11	0.95	inactive
SKA2 (GeneID 348235)	0.21	1.51	inactive
NEU3 (GeneID 10825)	0.51	0.76	inactive
LAGE3 (GeneID 8270)	0.71	1.16	inactive
MCOLN3 (GeneID 55283)	0.51	0.7	active
SDR9C7 (GeneID 121214)	0.76	0.74	inactive
PLA1A (GeneID 51365)	0.52	1.16	inactive
LMNB2 (GeneID 84823)	1.12	1.33	inactive
